Binding data for 14 substances are collected here from paper PMC9700865.

By UniProt entry, the sequences of proteins in these tests, tags left out. Where a name states a change or a piece, a line headed by the entry shows the natural chain unless it says otherwise. Chains listed by the source or under a name are the forms on record and can include a tag or linker. Residues count along the entry.
UniProt Q92786: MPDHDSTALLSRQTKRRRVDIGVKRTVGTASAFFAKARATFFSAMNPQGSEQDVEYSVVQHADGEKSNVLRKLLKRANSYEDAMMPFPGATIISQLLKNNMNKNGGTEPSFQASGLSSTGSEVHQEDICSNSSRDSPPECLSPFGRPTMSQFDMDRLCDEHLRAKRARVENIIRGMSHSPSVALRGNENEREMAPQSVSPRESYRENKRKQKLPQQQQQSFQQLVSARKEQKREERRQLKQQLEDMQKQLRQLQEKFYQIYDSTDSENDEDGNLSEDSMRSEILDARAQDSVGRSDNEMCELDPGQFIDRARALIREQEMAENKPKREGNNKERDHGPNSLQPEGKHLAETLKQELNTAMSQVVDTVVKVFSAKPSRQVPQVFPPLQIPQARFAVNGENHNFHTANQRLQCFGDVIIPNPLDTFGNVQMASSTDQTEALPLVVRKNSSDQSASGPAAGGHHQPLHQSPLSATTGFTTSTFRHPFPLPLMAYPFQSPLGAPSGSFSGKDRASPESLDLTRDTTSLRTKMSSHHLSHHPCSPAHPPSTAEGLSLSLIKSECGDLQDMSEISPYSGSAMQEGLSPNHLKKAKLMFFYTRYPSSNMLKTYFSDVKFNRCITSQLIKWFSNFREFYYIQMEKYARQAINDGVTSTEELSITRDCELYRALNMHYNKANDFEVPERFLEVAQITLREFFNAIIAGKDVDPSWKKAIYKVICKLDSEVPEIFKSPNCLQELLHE
GST-PROX1 N-terminal fragment P1 (residues 1-337), wild type: residues 1-337 of Q92786
GST-PROX1 P1 (1-337) S79A (Q92786, form named): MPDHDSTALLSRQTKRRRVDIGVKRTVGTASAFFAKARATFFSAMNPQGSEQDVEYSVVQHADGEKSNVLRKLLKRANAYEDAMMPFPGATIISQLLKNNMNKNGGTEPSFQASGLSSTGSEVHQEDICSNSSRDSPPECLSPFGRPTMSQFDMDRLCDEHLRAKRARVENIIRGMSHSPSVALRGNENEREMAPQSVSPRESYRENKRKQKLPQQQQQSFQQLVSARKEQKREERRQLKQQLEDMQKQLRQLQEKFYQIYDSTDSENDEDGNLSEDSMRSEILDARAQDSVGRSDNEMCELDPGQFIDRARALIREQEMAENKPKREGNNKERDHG
GST-PROX1 P1 S79E (Q92786, form named): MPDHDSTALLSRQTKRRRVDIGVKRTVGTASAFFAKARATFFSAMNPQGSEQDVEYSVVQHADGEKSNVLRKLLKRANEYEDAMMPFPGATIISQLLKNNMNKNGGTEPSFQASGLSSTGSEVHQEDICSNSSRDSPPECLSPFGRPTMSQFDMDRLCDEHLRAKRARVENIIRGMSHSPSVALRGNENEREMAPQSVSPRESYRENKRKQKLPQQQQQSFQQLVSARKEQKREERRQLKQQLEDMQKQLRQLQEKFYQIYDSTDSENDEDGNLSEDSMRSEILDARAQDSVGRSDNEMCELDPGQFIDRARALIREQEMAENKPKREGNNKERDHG
UniProt P54646: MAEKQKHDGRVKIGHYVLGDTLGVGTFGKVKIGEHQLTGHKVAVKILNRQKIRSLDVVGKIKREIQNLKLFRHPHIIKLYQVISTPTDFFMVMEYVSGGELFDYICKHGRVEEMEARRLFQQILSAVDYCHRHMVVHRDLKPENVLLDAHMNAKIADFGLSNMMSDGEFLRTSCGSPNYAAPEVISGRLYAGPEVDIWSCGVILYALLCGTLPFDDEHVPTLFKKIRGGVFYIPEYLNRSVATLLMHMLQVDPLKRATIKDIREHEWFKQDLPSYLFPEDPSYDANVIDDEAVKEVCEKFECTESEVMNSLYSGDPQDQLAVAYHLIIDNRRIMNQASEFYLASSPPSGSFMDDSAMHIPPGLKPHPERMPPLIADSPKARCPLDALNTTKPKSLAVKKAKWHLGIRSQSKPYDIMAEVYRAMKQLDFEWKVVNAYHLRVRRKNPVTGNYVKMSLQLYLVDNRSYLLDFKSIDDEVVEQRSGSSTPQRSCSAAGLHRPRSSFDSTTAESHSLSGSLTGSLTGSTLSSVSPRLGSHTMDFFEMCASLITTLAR
UniProt Q13619: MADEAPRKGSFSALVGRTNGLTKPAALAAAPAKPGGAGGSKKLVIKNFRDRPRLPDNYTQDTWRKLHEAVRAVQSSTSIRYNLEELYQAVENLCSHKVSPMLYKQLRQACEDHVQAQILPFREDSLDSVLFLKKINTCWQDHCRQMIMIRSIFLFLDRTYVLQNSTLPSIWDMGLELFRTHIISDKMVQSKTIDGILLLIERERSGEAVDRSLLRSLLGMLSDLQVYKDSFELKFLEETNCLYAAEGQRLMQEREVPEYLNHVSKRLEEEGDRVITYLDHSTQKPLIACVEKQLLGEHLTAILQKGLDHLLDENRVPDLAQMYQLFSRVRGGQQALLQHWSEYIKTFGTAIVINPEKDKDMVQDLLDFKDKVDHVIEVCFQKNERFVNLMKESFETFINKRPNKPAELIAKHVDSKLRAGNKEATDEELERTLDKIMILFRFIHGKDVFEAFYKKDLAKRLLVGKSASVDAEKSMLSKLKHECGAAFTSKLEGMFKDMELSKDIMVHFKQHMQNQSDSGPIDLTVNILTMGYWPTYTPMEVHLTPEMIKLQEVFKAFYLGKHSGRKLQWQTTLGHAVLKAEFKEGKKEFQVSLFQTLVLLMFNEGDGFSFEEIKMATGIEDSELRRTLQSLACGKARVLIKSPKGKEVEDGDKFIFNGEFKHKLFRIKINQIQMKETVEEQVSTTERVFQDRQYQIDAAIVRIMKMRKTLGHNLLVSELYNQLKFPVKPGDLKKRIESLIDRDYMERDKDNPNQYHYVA
UniProt Q13620: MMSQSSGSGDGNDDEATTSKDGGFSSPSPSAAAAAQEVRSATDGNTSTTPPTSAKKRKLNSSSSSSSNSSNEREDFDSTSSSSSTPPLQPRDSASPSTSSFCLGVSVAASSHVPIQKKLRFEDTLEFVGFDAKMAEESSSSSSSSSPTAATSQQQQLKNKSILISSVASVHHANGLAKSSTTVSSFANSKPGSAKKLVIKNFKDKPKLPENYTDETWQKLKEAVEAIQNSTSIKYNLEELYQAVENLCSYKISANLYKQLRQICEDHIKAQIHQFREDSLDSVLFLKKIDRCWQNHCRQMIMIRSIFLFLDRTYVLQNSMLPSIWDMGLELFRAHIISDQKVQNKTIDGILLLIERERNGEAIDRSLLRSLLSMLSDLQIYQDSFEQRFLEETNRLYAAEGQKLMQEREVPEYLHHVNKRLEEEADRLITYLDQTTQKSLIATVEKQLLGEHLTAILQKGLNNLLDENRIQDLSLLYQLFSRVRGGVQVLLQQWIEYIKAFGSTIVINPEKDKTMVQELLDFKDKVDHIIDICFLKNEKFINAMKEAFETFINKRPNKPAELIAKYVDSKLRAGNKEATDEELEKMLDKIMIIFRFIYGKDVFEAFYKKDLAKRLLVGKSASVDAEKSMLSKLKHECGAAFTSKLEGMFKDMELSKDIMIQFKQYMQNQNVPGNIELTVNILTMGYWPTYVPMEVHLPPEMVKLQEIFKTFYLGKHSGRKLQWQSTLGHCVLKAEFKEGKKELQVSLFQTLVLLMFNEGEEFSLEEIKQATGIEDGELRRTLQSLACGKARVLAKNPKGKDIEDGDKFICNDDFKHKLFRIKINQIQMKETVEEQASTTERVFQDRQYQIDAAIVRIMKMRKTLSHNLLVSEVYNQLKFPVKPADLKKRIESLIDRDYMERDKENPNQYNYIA
UniProt Q93034: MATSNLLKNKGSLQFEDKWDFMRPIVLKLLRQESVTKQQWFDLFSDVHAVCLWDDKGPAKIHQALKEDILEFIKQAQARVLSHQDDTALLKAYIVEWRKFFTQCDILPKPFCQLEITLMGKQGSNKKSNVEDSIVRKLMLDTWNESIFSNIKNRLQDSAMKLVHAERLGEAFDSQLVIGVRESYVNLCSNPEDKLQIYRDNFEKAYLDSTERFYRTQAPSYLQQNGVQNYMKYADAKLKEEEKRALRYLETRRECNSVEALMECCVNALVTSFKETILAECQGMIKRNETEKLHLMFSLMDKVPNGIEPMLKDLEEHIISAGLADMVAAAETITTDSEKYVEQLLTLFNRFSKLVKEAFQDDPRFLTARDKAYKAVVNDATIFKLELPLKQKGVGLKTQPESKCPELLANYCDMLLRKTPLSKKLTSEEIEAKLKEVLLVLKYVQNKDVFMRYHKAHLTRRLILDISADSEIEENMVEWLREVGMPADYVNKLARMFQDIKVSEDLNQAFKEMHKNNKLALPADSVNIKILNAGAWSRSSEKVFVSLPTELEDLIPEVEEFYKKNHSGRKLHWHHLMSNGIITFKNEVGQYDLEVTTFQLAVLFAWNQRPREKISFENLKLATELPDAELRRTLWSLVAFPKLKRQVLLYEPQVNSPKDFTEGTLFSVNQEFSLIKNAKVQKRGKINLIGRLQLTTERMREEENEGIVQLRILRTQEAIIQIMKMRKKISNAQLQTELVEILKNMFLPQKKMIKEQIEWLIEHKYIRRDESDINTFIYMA
UniProt Q16531: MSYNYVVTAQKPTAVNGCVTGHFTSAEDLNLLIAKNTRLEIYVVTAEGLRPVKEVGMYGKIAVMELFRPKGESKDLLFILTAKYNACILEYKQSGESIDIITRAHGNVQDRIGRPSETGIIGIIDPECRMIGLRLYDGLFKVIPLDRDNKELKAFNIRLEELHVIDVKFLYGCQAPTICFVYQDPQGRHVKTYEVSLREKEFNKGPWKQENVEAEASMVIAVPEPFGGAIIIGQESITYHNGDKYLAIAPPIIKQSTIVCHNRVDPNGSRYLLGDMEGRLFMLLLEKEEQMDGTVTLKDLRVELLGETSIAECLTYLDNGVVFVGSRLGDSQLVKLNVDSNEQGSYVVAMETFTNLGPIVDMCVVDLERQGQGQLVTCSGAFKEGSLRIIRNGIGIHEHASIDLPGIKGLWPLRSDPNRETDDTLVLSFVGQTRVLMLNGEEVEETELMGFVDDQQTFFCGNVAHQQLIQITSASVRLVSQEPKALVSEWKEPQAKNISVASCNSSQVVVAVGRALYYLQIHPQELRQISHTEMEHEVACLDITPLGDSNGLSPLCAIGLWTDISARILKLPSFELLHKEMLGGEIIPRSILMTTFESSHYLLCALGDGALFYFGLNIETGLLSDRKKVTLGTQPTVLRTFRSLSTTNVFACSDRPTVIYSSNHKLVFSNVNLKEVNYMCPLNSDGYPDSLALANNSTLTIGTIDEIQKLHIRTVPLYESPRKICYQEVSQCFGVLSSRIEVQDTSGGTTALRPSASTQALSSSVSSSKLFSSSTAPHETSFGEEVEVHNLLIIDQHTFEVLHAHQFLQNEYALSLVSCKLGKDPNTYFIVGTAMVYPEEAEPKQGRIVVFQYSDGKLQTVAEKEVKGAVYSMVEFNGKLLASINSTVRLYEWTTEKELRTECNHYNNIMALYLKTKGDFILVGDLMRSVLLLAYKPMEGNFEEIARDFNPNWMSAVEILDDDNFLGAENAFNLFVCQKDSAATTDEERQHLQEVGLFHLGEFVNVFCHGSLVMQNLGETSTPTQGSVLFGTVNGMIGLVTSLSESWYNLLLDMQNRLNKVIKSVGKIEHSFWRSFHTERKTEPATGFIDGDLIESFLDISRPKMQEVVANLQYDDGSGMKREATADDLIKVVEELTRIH

Assay [1] concerns the target FLAG-PROX1 expressed in HepG2 (UniProt Q92786). Kind of assay: co-IP; HepG2 cells transfected with FLAG-PROX1, deprived of glucose for 8 h in the presence of MG132.
The target in assay [2] is Endogenous PROX1 in Huh7 cells (human (endogenous in Huh7)) (UniProt Q92786). Kind of assay: co-IP; endogenous PROX1 in Huh7 cells treated with MG132 (4uM) immunoprecipitated with anti-PROX1 antibody or isotype IgG control, immunoblot.
Assay [3] deals with GST-PROX1 N-terminal fragment P1 (residues 1-337), wild type (UniProt Q92786). Kind of assay: pull-down; purified recombinant GST-PROX1 (P1-WT, S79A and S79E) incubated with DDB1 individually; source of DDB1 not told.
For assay [4], the target named is GST-PROX1 P1 (1-337) S79A (UniProt Q92786). The assay is described as above.
In assay [5] the target is GST-PROX1 P1 S79E (UniProt Q92786). The description is as above.
Assay [6] addresses GST-AMPKα2 (UniProt P54646). Description: pull-down; GST-AMPKα2 incubated with FLAG-PROX1 (whole, S79 variants or fragments) produced in HEK293T cells; only the target purified.
In assay [7] the target is FLAG-PROX1, wild type, expressed in HEK293T (UniProt Q92786). Kind of assay: co-IP; HEK293T cells cotransfected with PROX1 (whole or FLAG-PROX1 fragments) and CUL proteins or DDB1.
Assay [8] addresses GST-AMPKα2 (UniProt P54646). Kind of assay: pull-down; GST or GST-AMPKα2 from E. coli incubated with in vitro translated full-length PROX1; PROX1 detected by anti-PROX1 antibody; only the target purified.

Results are given in words; binding and its absence hold for the method and conditions named. In cells and extracts the contact can be indirect. Some entries that bind do so weakly or less than the wild type.

For the substance “CUL4A in HepG2 cells (from UniProt Q13619 1-759)”, the binding entry in assay [1] is listed as “binds”.

With “CUL4A in Huh7 cells (from UniProt Q13619 1-759)”, in assay [2], the binding entry is “binds”. “CUL4B in HepG2 cells (from UniProt Q13620 1-913)”: in assay [1], the binding entry was “binds”. For the substance “CUL4B in Huh7 cells (from UniProt Q13620 1-913)”, the binding entry in assay [2] is on record as “binds”. For “CUL5 in Huh7 cells (from UniProt Q93034 1-780)”, the binding entry in assay [2] is recorded as “no binding”. “DDB1 in HepG2 cells (from UniProt Q16531 1-1140)”: in assay [1], the binding result is recorded as “binds”. For “DDB1 in Huh7 cells (from UniProt Q16531 1-1140)”, in assay [2], the binding entry is recorded as “binds”. On to “DDB1 incubated with GST-PROX1 (Fig. 3f) (from UniProt Q16531 1-1140)”, for which the binding entry in assay [3], in assay [4] and in assay [5] was “binds” in each case. As for “FLAG-PROX1 S79A, expressed in HEK293T (from UniProt Q92786 1-737)”, the binding result in assay [6] is “binds”. Take “FLAG-PROX1 S79E, expressed in HEK293T (from UniProt Q92786 1-737)”: the binding entry in assay [6] is reported as “binds”.

Take “FLAG-PROX1, wild type, expressed in HEK293T (from UniProt Q92786 1-737)”: the binding result in assay [6] is “binds”. HA-CUL4A (from UniProt Q13619 1-759): the binding entry in assay [7] is “binds”. HA-CUL4B (from UniProt Q13620 1-913): in assay [7], the binding result is “binds”. Turning to “Prospero-related homeobox 1 (PROX1), full length, in vitro translated (from UniProt Q92786 1-737)”, in assay [8], the binding entry is recorded as “binds”.
